PubChem BioAssay AID1259425 – University of Nebraska Medical Center | 2018
Purpose: 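Compare each knockdown with KSR1 silencing using changes in marker transcripts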 (primary screen). Cells: HCT116 human colon cancer cells. Reagent: siRNA pool against human genes, 50 nM siRNA. Detection: 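After 50 nM siRNA pool, branched-DNA assay measures six marker transcripts per well, minus blank, normalised to the geometric mean of two housekeeping transcripts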. Scale: BNIP3L mRNA: higher = more BNIP3L transcript after knockdown.
In all, the deposit lists about 14,000 reagents; this is an unselected part. Further read-outs or replicates are left out here. Not given: the time to read-out.

Depletion of ISCA1 came out at: BNIP3L mRNA, set 1 = 0.109.
CLDN3 gave BNIP3L mRNA, set 1 = 0.0796.
Knock-down of UAP1 came out at: BNIP3L mRNA, set 1 = 0.0843.
Depletion of NLRP10 came out at: BNIP3L mRNA, set 1 = 0.0589.
After knock-down of PMS2, the screen gave BNIP3L mRNA, set 1 = 0.046.
With knock-down of CR1 the results were BNIP3L mRNA, set 1 = 0.0578.
After knock-down of CD38, the record shows BNIP3L mRNA, set 1 = 0.0545.
With knock-down of LMTK1 the results were BNIP3L mRNA, set 1 = 0.0883.
After knock-down of LCAT the results were BNIP3L mRNA, set 1 = 0.114.
With knock-down of AGBL4 the results were BNIP3L mRNA, set 1 = 0.118.
MYH9 scored BNIP3L mRNA, set 1 = 0.0981.
Against PDSS2, the entry reads BNIP3L mRNA, set 1 = 0.0775.
For KIAA0513, the values are BNIP3L mRNA, set 1 = 0.129.

Taken from above:
Value of CD38 under “BNIP3L mRNA, set 1”: 0.0545
Value for NLRP10 in “BNIP3L mRNA, set 1”: 0.0589
Value of LMTK1 in “BNIP3L mRNA, set 1”: 0.0883
Result of ISCA1 under “BNIP3L mRNA, set 1”: 0.109
AGBL4, BNIP3L mRNA, set 1 = 0.118

The list goes on:
BCOR gave BNIP3L mRNA, set 1 = 0.176.
SOCS7 gave BNIP3L mRNA, set 1 = 0.0889.
ARRDC2 showed BNIP3L mRNA, set 1 = 0.0863.
Against SEMA3F, the entry reads BNIP3L mRNA, set 1 = 0.0989.
For CD99L2, the entry reads BNIP3L mRNA, set 1 = 0.115.
Depletion of UFL1 came out at: BNIP3L mRNA, set 1 = 0.216.
With knock-down of SH2D1A, the screen gave BNIP3L mRNA, set 1 = 0.108.
For TGS1 the deposit lists BNIP3L mRNA, set 1 = 0.083.
SLC66A2 gave BNIP3L mRNA, set 1 = 0.103.
With knock-down of PHC3 the results were BNIP3L mRNA, set 1 = 0.212.
CTLA4 scored BNIP3L mRNA, set 1 = 0.0674.
For LRCH1, the entry reads BNIP3L mRNA, set 1 = 0.107.
Against TTC4 the deposit lists BNIP3L mRNA, set 1 = 0.0661.
With knock-down of SOX15, the record shows BNIP3L mRNA, set 1 = 0.419.
Depletion of CAMKK1 gave: BNIP3L mRNA, set 1 = 0.208.
